For three molecules, binding results are on record in article PMC11665689.

Amino acid sequences for entries named in this document (tags omitted).
UniProt Q99459: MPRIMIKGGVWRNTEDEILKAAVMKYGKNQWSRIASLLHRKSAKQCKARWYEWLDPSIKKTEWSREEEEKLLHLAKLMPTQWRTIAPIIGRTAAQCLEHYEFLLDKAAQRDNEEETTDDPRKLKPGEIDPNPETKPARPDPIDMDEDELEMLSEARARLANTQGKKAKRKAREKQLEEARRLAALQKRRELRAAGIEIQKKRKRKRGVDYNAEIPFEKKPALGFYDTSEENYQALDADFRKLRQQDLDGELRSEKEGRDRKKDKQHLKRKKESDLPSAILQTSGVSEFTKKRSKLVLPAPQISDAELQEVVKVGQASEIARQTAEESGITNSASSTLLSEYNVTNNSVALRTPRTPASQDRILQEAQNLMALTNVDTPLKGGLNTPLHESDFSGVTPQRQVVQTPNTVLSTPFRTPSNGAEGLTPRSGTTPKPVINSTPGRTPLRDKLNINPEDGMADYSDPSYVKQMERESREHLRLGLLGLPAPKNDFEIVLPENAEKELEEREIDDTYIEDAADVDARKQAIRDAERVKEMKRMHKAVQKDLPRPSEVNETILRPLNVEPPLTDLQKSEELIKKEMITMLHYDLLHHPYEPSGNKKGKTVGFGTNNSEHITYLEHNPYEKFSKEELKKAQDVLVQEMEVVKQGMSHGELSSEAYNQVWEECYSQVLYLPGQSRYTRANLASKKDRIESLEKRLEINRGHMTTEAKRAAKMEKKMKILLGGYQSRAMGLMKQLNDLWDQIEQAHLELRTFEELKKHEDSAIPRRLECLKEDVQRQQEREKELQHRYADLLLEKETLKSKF
UniProt O60828: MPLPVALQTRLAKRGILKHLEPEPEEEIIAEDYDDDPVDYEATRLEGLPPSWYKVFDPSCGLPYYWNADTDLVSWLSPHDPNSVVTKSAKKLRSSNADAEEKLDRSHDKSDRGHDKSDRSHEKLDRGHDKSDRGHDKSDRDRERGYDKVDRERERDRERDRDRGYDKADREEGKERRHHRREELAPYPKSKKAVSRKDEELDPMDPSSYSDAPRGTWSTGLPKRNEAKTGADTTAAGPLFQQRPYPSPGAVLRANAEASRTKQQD

Results are given in words; binding and its absence hold for the method and conditions named. Binding seen in cells or lysates may run through a third protein. Some binding calls cover weakened binding; strength is not graded here. Tags and fused reporters may be left off the sequences shown.

The assay concerns the target T1, Flag-tagged CWF19L1 (CWF19-like cell cycle control factor 1) (human) (UniProt Q69YN2).
T1 sequence: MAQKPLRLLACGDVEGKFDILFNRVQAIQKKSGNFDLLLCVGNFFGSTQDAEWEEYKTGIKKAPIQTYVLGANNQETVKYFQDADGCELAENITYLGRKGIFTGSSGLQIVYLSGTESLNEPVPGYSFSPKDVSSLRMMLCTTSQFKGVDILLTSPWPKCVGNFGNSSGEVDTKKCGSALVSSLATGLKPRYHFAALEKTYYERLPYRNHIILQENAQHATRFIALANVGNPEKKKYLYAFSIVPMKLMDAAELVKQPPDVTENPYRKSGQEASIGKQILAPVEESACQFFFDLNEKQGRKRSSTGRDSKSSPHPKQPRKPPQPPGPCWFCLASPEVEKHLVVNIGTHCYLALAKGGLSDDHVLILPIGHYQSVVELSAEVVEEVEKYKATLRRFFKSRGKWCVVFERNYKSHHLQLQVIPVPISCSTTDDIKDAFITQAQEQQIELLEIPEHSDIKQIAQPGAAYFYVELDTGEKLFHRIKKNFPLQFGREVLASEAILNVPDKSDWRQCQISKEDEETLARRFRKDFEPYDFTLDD
In words: co-IP; HEK293T cells transfected with Flag vector, Flag-tagged CWF19L1 or truncated mutants; NP-40 lysis buffer (25 mM Tris-HCl pH 7.4, 150 mM NaCl, 1% NP-40, 1 mM EDTA, 1 mM EGTA), sonication; anti-Flag M2 magnetic beads 3 h at 4 °C; elution with 3 x FLAG peptide; bound endogenous proteins detected by Western blot.

Take CDC5L (from UniProt Q99459 1-802): the binding result was “binds”.
As for “polyglutamine binding protein 1 (PQBP1) (from UniProt O60828 1-265)”, the binding result is “binds”.

B1: SNRNP40 (protein, UniProt Q96DI7 1-357)
chain: MIEQQKRKGPELPLVPVKRQRHELLLGAGSGPGAGQQQATPGALLQAGPPRCSSLQAPIMLLSGHEGEVYCCKFHPNGSTLASAGFDRLILLWNVYGDCDNYATLKGHSGAVMELHYNTDGSMLFSASTDKTVAVWDSETGERVKRLKGHTSFVNSCYPARRGPQLVCTGSDDGTVKLWDIRKKAAIQTFQNTYQVLAVTFNDTSDQIISGGIDNDIKVWDLRQNKLTYTMRGHADSVTGLSLSSEGSYLLSNAMDNTVRVWDVRPFAPKERCVKIFQGNVHNFEKNLLRCSWSPDGSKIAAGSADRFVYVWDTTSRRILYKLPGHAGSINEVAFHPDEPIIISASSDKRLYMGEIQ
B1: the binding result is “binds”.
